PubChem BioAssay AID1224830 – NIAID, 2016

- Assay: 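Regulators of TLR4 signalling towards TNF-alpha in macrophage-like cells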 (primary screen)
- Cells: human THP-1 monocytic leukaemia cells, TNF dual-luciferase reporter clone, PMA-differentiated to macrophage-like cells
- Knock-down reagent: siRNA pool against human genes, 50 nM
- Time to read-out: LPS for 4 h, given about 3 days after siRNA transfection
- Treatment: bacterial LPS (TLR4 ligand), 10 ng/ml
- Measured: 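TNF firefly reporter luminescence divided by renilla, normalised to the plate median, then turned into a robust z-score for each replicate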
- Direction: TNF reporter robust z-score: higher = stronger TNF reporter response to LPS
- Rule for the call: 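Each well counts as active if its z-score is over 2.8 or under -1.5; controls are left without a call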
Shown is an unselected part of about 18,000 deposited reagents. Over the whole deposit, about 2,900 (16%) got an active call. 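Calls are made per well; low scores hint the gene aids the LPS response, high scores that it dampens it.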 Repeated entries: four replicate wells of each siRNA pool.

target	TNF reporter robust z-score	call
TAS2R60 (taste 2 receptor member 60)	-0.65	inactive
TAS2R60 (taste 2 receptor member 60)	0.12	inactive
TAS2R60 (taste 2 receptor member 60)	-0.5	inactive
TAS2R60 (taste 2 receptor member 60)	0.81	inactive
SLC49A4	0.1	inactive
SLC49A4	-0.14	inactive
SLC49A4	-0.25	inactive
SLC49A4	0.59	inactive
TMEM62 (transmembrane protein 62)	0.22	inactive
TMEM62 (transmembrane protein 62)	1.65	inactive
TMEM62 (transmembrane protein 62)	2.37	inactive
TMEM62 (transmembrane protein 62)	0.68	inactive
GPX1 (glutathione peroxidase 1)	-0.63	inactive
GPX1 (glutathione peroxidase 1)	-1.52	active
GPX1 (glutathione peroxidase 1)	-0.57	inactive
GPX1 (glutathione peroxidase 1)	-0.7	inactive
CD36 (CD36 molecule (CD36 blood group))	-0.54	inactive
CD36 (CD36 molecule (CD36 blood group))	0.08	inactive
CD36 (CD36 molecule (CD36 blood group))	0.05	inactive
CD36 (CD36 molecule (CD36 blood group))	0.14	inactive
DXO (decapping exoribonuclease)	-1.17	inactive
DXO (decapping exoribonuclease)	-1.01	inactive
DXO (decapping exoribonuclease)	-0.87	inactive
DXO (decapping exoribonuclease)	-0.89	inactive
RAB31 (RAB31, member RAS oncogene family)	1.13	inactive
RAB31 (RAB31, member RAS oncogene family)	1.76	inactive
RAB31 (RAB31, member RAS oncogene family)	1.91	inactive
RAB31 (RAB31, member RAS oncogene family)	-0.38	inactive
LCN2 (lipocalin 2)	1.92	inactive
LCN2 (lipocalin 2)	1.26	inactive
LCN2 (lipocalin 2)	1.22	inactive
LCN2 (lipocalin 2)	1.53	inactive
HIPK1 (homeodomain interacting protein kinase 1)	0.5	inactive
HIPK1 (homeodomain interacting protein kinase 1)	0.58	inactive
HIPK1 (homeodomain interacting protein kinase 1)	1.59	inactive
HIPK1 (homeodomain interacting protein kinase 1)	1.21	inactive
SNCA (synuclein alpha)	0.81	inactive
SNCA (synuclein alpha)	1.55	inactive
SNCA (synuclein alpha)	-0.11	inactive
SNCA (synuclein alpha)	0.4	inactive
ZNF530 (zinc finger protein 530)	-1	inactive
ZNF530 (zinc finger protein 530)	0.24	inactive
ZNF530 (zinc finger protein 530)	-0.33	inactive
ZNF530 (zinc finger protein 530)	-0.23	inactive
ZBTB48 (zinc finger and BTB domain containing 48)	-1.19	inactive
ZBTB48 (zinc finger and BTB domain containing 48)	0.15	inactive
ZBTB48 (zinc finger and BTB domain containing 48)	-0.94	inactive
ZBTB48 (zinc finger and BTB domain containing 48)	-0.25	inactive
CYP2A6 (cytochrome P450 family 2 subfamily A member 6)	-1.57	active
CYP2A6 (cytochrome P450 family 2 subfamily A member 6)	-0.93	inactive
CYP2A6 (cytochrome P450 family 2 subfamily A member 6)	-1.46	inactive
CYP2A6 (cytochrome P450 family 2 subfamily A member 6)	-1.12	inactive
RIPK4 (receptor interacting serine/threonine kinase 4)	0.16	inactive
RIPK4 (receptor interacting serine/threonine kinase 4)	0.04	inactive
RIPK4 (receptor interacting serine/threonine kinase 4)	-0.46	inactive
RIPK4 (receptor interacting serine/threonine kinase 4)	-0.01	inactive

Entries listed so far whose target name begins with R or r (8):
target	TNF reporter robust z-score	call
RAB31 (RAB31, member RAS oncogene family)	1.13	inactive
RAB31 (RAB31, member RAS oncogene family)	1.76	inactive
RAB31 (RAB31, member RAS oncogene family)	1.91	inactive
RAB31 (RAB31, member RAS oncogene family)	-0.38	inactive
RIPK4 (receptor interacting serine/threonine kinase 4)	0.16	inactive
RIPK4 (receptor interacting serine/threonine kinase 4)	0.04	inactive
RIPK4 (receptor interacting serine/threonine kinase 4)	-0.46	inactive
RIPK4 (receptor interacting serine/threonine kinase 4)	-0.01	inactive

Continued.
target	TNF reporter robust z-score	call
NMUR2 (neuromedin U receptor 2)	-1.29	inactive
NMUR2 (neuromedin U receptor 2)	-0.93	inactive
NMUR2 (neuromedin U receptor 2)	-0.79	inactive
NMUR2 (neuromedin U receptor 2)	1.71	inactive
C12orf43 (chromosome 12 open reading frame 43)	0.09	inactive
C12orf43 (chromosome 12 open reading frame 43)	0.66	inactive
C12orf43 (chromosome 12 open reading frame 43)	1.68	inactive
C12orf43 (chromosome 12 open reading frame 43)	0.97	inactive
ZNF141 (zinc finger protein 141)	-0.89	inactive
ZNF141 (zinc finger protein 141)	-2.27	active
ZNF141 (zinc finger protein 141)	-1.16	inactive
ZNF141 (zinc finger protein 141)	-0.87	inactive
PGA3 (pepsinogen A3)	0.8	inactive
PGA3 (pepsinogen A3)	0.53	inactive
PGA3 (pepsinogen A3)	0.19	inactive
FAM107B (family with sequence similarity 107 member B)	-0.69	inactive
FAM107B (family with sequence similarity 107 member B)	-0.44	inactive
FAM107B (family with sequence similarity 107 member B)	-0.29	inactive
FAM107B (family with sequence similarity 107 member B)	-0.01	inactive
DNAJC17 (DnaJ heat shock protein family (Hsp40) member C17)	-0.04	inactive
DNAJC17 (DnaJ heat shock protein family (Hsp40) member C17)	-0.21	inactive
DNAJC17 (DnaJ heat shock protein family (Hsp40) member C17)	0.34	inactive
DNAJC17 (DnaJ heat shock protein family (Hsp40) member C17)	0.09	inactive
PRR7 (proline rich 7, synaptic)	0.1	inactive
PRR7 (proline rich 7, synaptic)	0.5	inactive
PRR7 (proline rich 7, synaptic)	-0.36	inactive
PRR7 (proline rich 7, synaptic)	0.71	inactive
LILRB1 (leukocyte immunoglobulin like receptor B1)	1.53	inactive
LILRB1 (leukocyte immunoglobulin like receptor B1)	-0.73	inactive
LILRB1 (leukocyte immunoglobulin like receptor B1)	0.15	inactive
LILRB1 (leukocyte immunoglobulin like receptor B1)	0.14	inactive
SETMAR (SET and mariner transposase domain methyltransferase)	-0.76	inactive
SETMAR (SET and mariner transposase domain methyltransferase)	-0.96	inactive
SETMAR (SET and mariner transposase domain methyltransferase)	-1	inactive
SETMAR (SET and mariner transposase domain methyltransferase)	-0.85	inactive
GPATCH4 (G-patch domain containing 4 (gene/pseudogene))	2.9	active
GPATCH4 (G-patch domain containing 4 (gene/pseudogene))	0.58	inactive
GPATCH4 (G-patch domain containing 4 (gene/pseudogene))	0.01	inactive
TFPI2 (tissue factor pathway inhibitor 2)	0.01	inactive
TFPI2 (tissue factor pathway inhibitor 2)	0.27	inactive
TFPI2 (tissue factor pathway inhibitor 2)	0.84	inactive
RETREG1 (reticulophagy regulator 1)	-0.27	inactive
RETREG1 (reticulophagy regulator 1)	1.65	inactive
RETREG1 (reticulophagy regulator 1)	1.03	inactive
RETREG1 (reticulophagy regulator 1)	-1.01	inactive
LAMC3 (laminin subunit gamma 3)	1.68	inactive
LAMC3 (laminin subunit gamma 3)	3.48	active
LAMC3 (laminin subunit gamma 3)	2.53	inactive
LAMC3 (laminin subunit gamma 3)	1.32	inactive
TTYH2 (tweety family member 2)	-0.91	inactive
TTYH2 (tweety family member 2)	0.37	inactive
TTYH2 (tweety family member 2)	-0.47	inactive
TTYH2 (tweety family member 2)	-0.01	inactive
ATP6V0A2 (ATPase H+ transporting V0 subunit a2)	0.68	inactive
ATP6V0A2 (ATPase H+ transporting V0 subunit a2)	5.46	active
ATP6V0A2 (ATPase H+ transporting V0 subunit a2)	1.64	inactive
ATP6V0A2 (ATPase H+ transporting V0 subunit a2)	2.29	inactive
DHX16 (DEAH-box helicase 16)	3.27	active
DHX16 (DEAH-box helicase 16)	5.66	active
DHX16 (DEAH-box helicase 16)	2.66	inactive
DHX16 (DEAH-box helicase 16)	5.6	active
UPRT (uracil phosphoribosyltransferase homolog)	-1.49	inactive
UPRT (uracil phosphoribosyltransferase homolog)	-1.17	inactive
UPRT (uracil phosphoribosyltransferase homolog)	-1.02	inactive
UPRT (uracil phosphoribosyltransferase homolog)	-1.4	inactive
OGG1 (8-oxoguanine DNA glycosylase)	0.92	inactive
OGG1 (8-oxoguanine DNA glycosylase)	1.18	inactive
OGG1 (8-oxoguanine DNA glycosylase)	0.85	inactive
OGG1 (8-oxoguanine DNA glycosylase)	1.32	inactive
SPATA22 (spermatogenesis associated 22)	-1.54	active
SPATA22 (spermatogenesis associated 22)	-0.63	inactive
SPATA22 (spermatogenesis associated 22)	-0.35	inactive
SPATA22 (spermatogenesis associated 22)	-1.03	inactive
CPXM1 (carboxypeptidase X, M14 family member 1)	-0.34	inactive
CPXM1 (carboxypeptidase X, M14 family member 1)	-0.55	inactive
CPXM1 (carboxypeptidase X, M14 family member 1)	-0.75	inactive
CPXM1 (carboxypeptidase X, M14 family member 1)	-0.17	inactive
WBP1 (WW domain binding protein 1)	0.24	inactive
WBP1 (WW domain binding protein 1)	-0.4	inactive
WBP1 (WW domain binding protein 1)	1.14	inactive
WBP1 (WW domain binding protein 1)	0.88	inactive
TRAPPC4 (trafficking protein particle complex subunit 4)	1.86	inactive
TRAPPC4 (trafficking protein particle complex subunit 4)	1.47	inactive
TRAPPC4 (trafficking protein particle complex subunit 4)	0.99	inactive
TRAPPC4 (trafficking protein particle complex subunit 4)	1.87	inactive
